Experimental data taken from article PMC11649813.
These are yes or no findings as the source states them, for the method shown. Binding seen in cells or lysates may run through a third protein. Some entries that bind do so weakly or less than the wild type.

Amino acid sequences for entries named in this document (tags omitted).
UniProt Q9H4A6: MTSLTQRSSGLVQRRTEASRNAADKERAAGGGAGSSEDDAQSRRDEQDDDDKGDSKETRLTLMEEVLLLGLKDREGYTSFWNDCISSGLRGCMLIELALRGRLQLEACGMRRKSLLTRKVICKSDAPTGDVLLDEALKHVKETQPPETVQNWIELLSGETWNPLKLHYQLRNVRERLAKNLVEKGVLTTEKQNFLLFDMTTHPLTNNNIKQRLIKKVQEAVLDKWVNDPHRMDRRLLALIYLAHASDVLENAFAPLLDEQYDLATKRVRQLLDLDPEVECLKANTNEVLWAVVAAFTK
UniProt P53618: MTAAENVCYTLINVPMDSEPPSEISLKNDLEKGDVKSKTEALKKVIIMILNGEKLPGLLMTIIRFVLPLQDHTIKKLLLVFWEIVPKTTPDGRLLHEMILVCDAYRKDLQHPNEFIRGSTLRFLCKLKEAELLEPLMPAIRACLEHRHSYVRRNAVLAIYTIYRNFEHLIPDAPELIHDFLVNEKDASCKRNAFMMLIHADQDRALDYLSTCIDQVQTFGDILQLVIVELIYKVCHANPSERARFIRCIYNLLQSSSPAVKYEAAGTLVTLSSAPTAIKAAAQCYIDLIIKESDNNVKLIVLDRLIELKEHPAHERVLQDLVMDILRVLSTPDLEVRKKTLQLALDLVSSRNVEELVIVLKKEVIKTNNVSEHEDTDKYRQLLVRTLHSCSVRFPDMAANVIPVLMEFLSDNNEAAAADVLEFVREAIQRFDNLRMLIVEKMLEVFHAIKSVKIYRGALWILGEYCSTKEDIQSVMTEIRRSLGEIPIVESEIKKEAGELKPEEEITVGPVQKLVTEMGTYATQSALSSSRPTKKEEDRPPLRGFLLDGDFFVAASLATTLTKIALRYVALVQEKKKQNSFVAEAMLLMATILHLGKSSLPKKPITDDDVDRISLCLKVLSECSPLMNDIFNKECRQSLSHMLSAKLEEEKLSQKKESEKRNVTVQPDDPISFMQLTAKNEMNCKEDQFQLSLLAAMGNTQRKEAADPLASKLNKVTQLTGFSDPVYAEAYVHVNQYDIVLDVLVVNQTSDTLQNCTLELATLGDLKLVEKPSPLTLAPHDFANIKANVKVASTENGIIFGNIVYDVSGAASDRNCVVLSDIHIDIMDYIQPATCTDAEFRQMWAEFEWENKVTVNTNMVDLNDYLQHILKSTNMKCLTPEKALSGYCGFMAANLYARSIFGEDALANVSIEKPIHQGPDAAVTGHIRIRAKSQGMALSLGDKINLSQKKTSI

Target: GOLPH3 (overexpressed, untagged) (human) (UniProt Q9H4A6)
Assay: co-IP; WT HEK293 transfectants lysed in 50 mM Tris pH 7.6, 150 mM NaCl, 2 mM EDTA, 0.5% Igepal CA-630; GOLPH3 immunoprecipitated overnight at 4 °C with anti-GOLPH3 (19112-1-AP or ab98023) and Protein A Dynabeads; immunoblot

- binding: binds
Substance: cell-endogenous COPB, a subunit of the COPI coatomer (from UniProt P53618 1-953)
